The target of data set [1] is T1, BrxR (untagged WT) (Acinetobacter sp. NEB394) (UniProt A0A7H8SL41). Kind of data set: EMSA. The note with it: EMSA: 20 mM Tris pH 7.9, 40 mM NaCl, 2.5% sucrose, 22 C, 30 min, 20 nM DNA (10 nM in Fig S6), 25-800 nM BrxR, 7% native gel in TBE, recombinant protein, protein details: N-terminal His6 removed by thrombin. On the technique in general: Mobility shift assays separate free from complexed probe on a gel.

Data set [2] has as its target T1, BrxR (untagged WT) (Acinetobacter sp. NEB394). Nature of the data set: crystal structure (2.3 A). The note with it: recombinant protein; protein details: N-terminal His6 removed by thrombin.

For at least one entry, the source does not settle the construct or the ends of the probe. For some assays here: Weaker means in comparison with the reference protein, sequence or condition of that experiment. For some assays here: At least one verdict was read from the data and is not stated in words by the source.

Regarding “TTACGCTGGAGTCTGAGGCTCGTCCTGAATGATATATACCCTAAAAATAATTTAGTGTATGATCTTACGGCATTATACGTATGATCGGTCCACGACAGC (double strand)”, in data set [1], the binding result was “binds more weakly”.

As for “ATACCGTAAAAATAATTTACTGTAT (double strand) [25 bp BrxR target, crystal]”, the binding result in data set [2] was “binds”.

Take “TTACGCTGGAGTCTGAGGCTCGTCCTGAATGATATATCCCGTAAAAATAATTTACTGGATGATCTTACGGCATTATACGTATGATCGGTCCACGACAGC (double strand) [Fig 6D panel 2, +/-10 substitutions]”: the binding result in data set [1] (negligible effect vs WT target) is “binds”. For the sequence “TTACGCTGGAGTCTGAGGCTCGTCCTGAATGATATATACCGTAAAAATAATTTACTGTATGATCTTACGGCATTATACGTATGATCGGTCCACGACAGC (double strand) [Fig 6D panel 1, WT target in random flanks (99 bp)]”, the binding result in data set [1] is listed as “binds”.

With “TTACGCTGGAGTCTGAGGCTCGTCCTGAATGATATATACCGCAAAAATAATTTCCTGTATGATCTTACGGCATTATACGTATGATCGGTCCACGACAGC (double strand)”, in data set [1], the binding result is listed as “binds more weakly”.

The record behind these values is article PMC9122589.
